Drawing on patent publication US11718631B2, “Sulphonamides and compositions thereof for treating conditions associated with NLRP activity” (Novartis AG, priority 2017, dated 2023), this text covers IC50 for one compound.

Amino acid sequences for entries named in this document (tags omitted).
UniProt Q96P20, whole entry: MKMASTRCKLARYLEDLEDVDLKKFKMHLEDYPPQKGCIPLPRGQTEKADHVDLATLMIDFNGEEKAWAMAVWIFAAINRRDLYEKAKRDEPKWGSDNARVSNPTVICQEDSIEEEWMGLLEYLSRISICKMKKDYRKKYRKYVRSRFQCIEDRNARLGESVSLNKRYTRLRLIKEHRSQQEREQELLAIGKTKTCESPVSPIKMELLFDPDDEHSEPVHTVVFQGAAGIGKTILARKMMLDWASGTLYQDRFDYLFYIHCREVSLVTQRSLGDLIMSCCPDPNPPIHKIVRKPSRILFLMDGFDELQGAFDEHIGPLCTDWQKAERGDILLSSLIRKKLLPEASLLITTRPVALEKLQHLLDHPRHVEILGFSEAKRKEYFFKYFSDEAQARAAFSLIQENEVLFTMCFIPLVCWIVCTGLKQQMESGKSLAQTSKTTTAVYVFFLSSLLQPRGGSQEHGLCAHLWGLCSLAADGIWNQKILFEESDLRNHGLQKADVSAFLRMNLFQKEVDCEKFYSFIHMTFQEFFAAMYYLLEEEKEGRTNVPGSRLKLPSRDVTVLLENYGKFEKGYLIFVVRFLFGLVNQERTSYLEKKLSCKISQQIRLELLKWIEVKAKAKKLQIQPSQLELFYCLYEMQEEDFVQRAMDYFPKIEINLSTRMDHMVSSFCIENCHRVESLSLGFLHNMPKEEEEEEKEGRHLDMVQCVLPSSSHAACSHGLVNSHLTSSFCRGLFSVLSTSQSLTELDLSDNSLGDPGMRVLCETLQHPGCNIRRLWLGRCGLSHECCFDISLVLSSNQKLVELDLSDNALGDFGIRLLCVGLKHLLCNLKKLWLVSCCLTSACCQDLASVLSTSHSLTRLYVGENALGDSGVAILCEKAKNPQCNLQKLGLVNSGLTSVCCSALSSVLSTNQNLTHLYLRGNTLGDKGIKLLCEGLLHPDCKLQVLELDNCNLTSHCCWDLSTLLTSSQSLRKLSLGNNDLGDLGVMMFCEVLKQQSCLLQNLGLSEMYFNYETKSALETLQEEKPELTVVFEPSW

The structures given here were assigned with low confidence; some may be wrong.

This test deals with NLRP3 (Homo sapiens, UniProt Q96P20). Nature of the test: IL-1β production in PMA-differentiated THP-1 cells stimulated with gramicidin (hTHP-1 assay). Conditions: read-out: NLRP3 Antagonist, human THP1 NLRP3, IL-1b, Normalized: GeoMean IC50; hTHP-1 assay containing 2% fetal bovine serum; average IC50, class symbols.

As a reminder, the IC50 is the concentration at which inhibition is half-maximal. As to `Cc1cccc(-c2cc(C(C)C)c(CC(=O)NS(=O)(=O)c3ccc(CN(C)C)cc3)c(C(C)C)c2)c1`, the IC50 is 1 to 5 µM.
